Results deposited as PubChem BioAssay AID1671195 (Yale University, 2021)
Aim: 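Regulators of LDL receptor activity judged by labelled LDL uptake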 (primary screen). Cell system: human Huh7 hepatoma cells. Reagent: siRNA pool against human genes, 18 nM. Time to read-out: about 2 to 2.5 days of knockdown, then 8 h LDL uptake. Treatment: DiI-labelled LDL at 30 µg/ml for 8 h, in lipoprotein-deficient serum medium. Measured: 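Per-cell DiI-LDL intensity by automated imaging; well means scaled to the plate median and given as a robust z-score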. Reading the numbers: robust z-score: higher = more LDL uptake after knockdown. Rule for the call: 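a gene counts as active if at least two replicate z-scores exceed ±2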.
This is an unselected part of about 22,000 deposited reagents. In the full data, about 1,510 (6.9%) are marked active. 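Active includes knockdowns raising or lowering LDL uptake; positive z-scores mean more uptake, negative mean less.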 A number with no mark means an inactive call.

Silencing of NIPSNAP1 (GeneID 8508) resulted in: robust z-score, replicate 1 = -0.162; robust z-score, replicate 2 = 0.0119; robust z-score, replicate 3 = 0.00216. Against TOMM22P3 (GeneID 122038), the entry reads robust z-score, replicate 1 = -0.845; robust z-score, replicate 2 = -1.25; robust z-score, replicate 3 = -0.562. Depletion of SLC13A5 (GeneID 284111) came out at: robust z-score, replicate 1 = 0.338; robust z-score, replicate 2 = 1.34; robust z-score, replicate 3 = 0.972. CYTL1 (GeneID 54360) scored robust z-score, replicate 1 = -0.0408; robust z-score, replicate 2 = 0.265; robust z-score, replicate 3 = 0.499. With knock-down of EXOC3 (GeneID 11336) the results were robust z-score, replicate 1 = -1.46; robust z-score, replicate 2 = -2.34; robust z-score, replicate 3 = -1.36. After knock-down of OMG (GeneID 4974), the screen gave robust z-score, replicate 1 = -2.08 (active); robust z-score, replicate 2 = -1.99; robust z-score, replicate 3 = -1.89.

With knock-down of SIGLEC1 (GeneID 6614), the record shows robust z-score, replicate 1 = 1.92; robust z-score, replicate 2 = -0.0368; robust z-score, replicate 3 = -0.0118. With knock-down of WDR48 (GeneID 57599), the screen gave robust z-score, replicate 1 = 0.568; robust z-score, replicate 2 = 1.84; robust z-score, replicate 3 = 2.51. GDPD2 (GeneID 54857) gave robust z-score, replicate 1 = 1.47; robust z-score, replicate 2 = 0.239; robust z-score, replicate 3 = 1.02. Knock-down of AP3S1 (GeneID 1176) gave: robust z-score, replicate 1 = 0.72; robust z-score, replicate 2 = 1.35; robust z-score, replicate 3 = 0.405. Silencing of ABI2 (GeneID 10152) came out at: robust z-score, replicate 1 = -0.0765; robust z-score, replicate 2 = 0.448; robust z-score, replicate 3 = 0.0671. Knock-down of RNF146 (GeneID 81847) came out at: robust z-score, replicate 1 = 0.459; robust z-score, replicate 2 = 0.513; robust z-score, replicate 3 = 0.292.

Silencing of LOC388340 (retired record) (GeneID 388340) resulted in: robust z-score, replicate 1 = 1.35; robust z-score, replicate 2 = 1.62; robust z-score, replicate 3 = 1.76. For SEH1L (GeneID 81929), the entry reads robust z-score, replicate 1 = 1.05; robust z-score, replicate 2 = 0.778; robust z-score, replicate 3 = 0.486. With knock-down of NRN1 (GeneID 51299) the results were robust z-score, replicate 1 = 1.72; robust z-score, replicate 2 = 0.735; robust z-score, replicate 3 = 1.61. LOC440892 (retired record) (GeneID 440892) scored robust z-score, replicate 1 = -1.83; robust z-score, replicate 2 = 1.13; robust z-score, replicate 3 = 1.44. Depletion of MGAT5B (GeneID 146664) resulted in: robust z-score, replicate 1 = -1.61; robust z-score, replicate 2 = -1.59; robust z-score, replicate 3 = -1.92. For SNCA (GeneID 6622), the entry reads robust z-score, replicate 1 = 1.52; robust z-score, replicate 2 = 2.1; robust z-score, replicate 3 = 1.69.

After knock-down of LOC442146 (retired record) (GeneID 442146), the screen gave robust z-score, replicate 1 = -2.12 (active); robust z-score, replicate 2 = -2.17; robust z-score, replicate 3 = -2. Depletion of TP53INP1 (GeneID 94241) gave: robust z-score, replicate 1 = 6.45 (active); robust z-score, replicate 2 = 9.24; robust z-score, replicate 3 = 9.39. CSN3 (GeneID 1448) scored robust z-score, replicate 1 = 1.45; robust z-score, replicate 2 = 1.73; robust z-score, replicate 3 = 1.31. Against TSLIG2 (GeneID 79074), the entry reads robust z-score, replicate 1 = -0.877; robust z-score, replicate 2 = -1.1; robust z-score, replicate 3 = -0.95. After knock-down of YLPM1 (GeneID 56252), the screen gave robust z-score, replicate 1 = -0.276; robust z-score, replicate 2 = -1.31; robust z-score, replicate 3 = -0.775. Knock-down of SERAC1 (GeneID 84947) came out at: robust z-score, replicate 1 = 0.719; robust z-score, replicate 2 = 0.855; robust z-score, replicate 3 = 0.542.

Records listed above marked active:
OMG (GeneID 4974) — robust z-score, replicate 1: -2.08 (active); robust z-score, replicate 2: -1.99; robust z-score, replicate 3: -1.89
LOC442146 (retired record) (GeneID 442146) — robust z-score, replicate 1: -2.12 (active); robust z-score, replicate 2: -2.17; robust z-score, replicate 3: -2
TP53INP1 (GeneID 94241) — robust z-score, replicate 1: 6.45 (active); robust z-score, replicate 2: 9.24; robust z-score, replicate 3: 9.39
